PubChem BioAssay AID652259, Drosophila RNAi Screening Center, 2013

Screen: 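Knock-downs that push a Wingless-driven reporter up or down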 (primary screen)
System: Drosophila clone 8 imaginal disc epithelial cells
Reagents: long dsRNA against Drosophila genes
Treatment: pathway stimulated by co-transfected Wingless expression plasmid
Read-out: 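Dual luciferase reads per well after Wingless plasmid stimulation: reporter firefly light and Renilla control light; activity is firefly divided by Renilla, a ratio not deposited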
Scale: firefly reporter light: higher = more Wg reporter light, before normalisation; Renilla control light: higher = more transfected or surviving cells
Hit rule: 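Strong candidates differ from their plate mean by at least two out of four per-plate statistical tests; weak candidates meet just one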
Calls: active = candidate regulator (raises or lowers reporter); inactive = not a candidate
The deposit covers about 22,000 reagents; this is a random part of those with a known target gene and a result. Of all reagents, 233 (1.1%) are marked active. 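Light values are raw, unnormalised plate reads; the ratio scores behind the reporter calls were not deposited.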 A plus sign joins genes that one reagent is predicted to hit. Not stated in the record: the amount of reagent, the time to read-out, the dose of the treatment.

Gene	amplicon	reporter change call, replicate 1	firefly reporter light, replicate 1	firefly reporter light, replicate 2	Renilla control light, replicate 1	Renilla control light, replicate 2	Outcome
CG17477	DRSC15239		17271		3434		inactive
SmD2 (Small ribonucleoprotein particle protein SmD2)	DRSC12536		12528		2435		inactive
SsRbeta (Signal sequence receptor beta)	DRSC11290		3168		1440		inactive
CG43902	DRSC17850		31434		14250		inactive
CG43902	DRSC17999		33379		7907		inactive
CG31769	DRSC01361		21090		11947		inactive
CG32462 + asRNA:CR43426	DRSC11851		9280		2341		inactive
CG4630	DRSC06874		18037		6452		inactive
CG12836	DRSC06182		3929	7814	1171	3328	inactive
CG6974	DRSC16160		11271		3442		inactive
CG2577	DRSC19863	Wg reporter activity raised	57717		7579		active
CG12170	DRSC12199		8328		3397		inactive
nudC	DRSC11096		7621		3234		inactive
nudC	DRSC11097		6706		3149		inactive
pigs (pickled eggs)	DRSC17472		3219		928		inactive
pigs (pickled eggs)	DRSC18334		14586		7485		inactive
pigs (pickled eggs)	DRSC18335		12785		8240		inactive
drpr (draper)	DRSC08143		4357		3159		inactive
drpr (draper)	DRSC08525		5610		3184		inactive
MED23 + CG3700	DRSC04406		2701	5708	643	2732	inactive
MED23 + CG3700	DRSC04407		5803		1888		inactive

Continued, starting with the last 2 of the part before.
Gene	amplicon	reporter change call, replicate 1	firefly reporter light, replicate 1	firefly reporter light, replicate 2	Renilla control light, replicate 1	Renilla control light, replicate 2	Outcome
MED23 + CG3700	DRSC04406		2701	5708	643	2732	inactive
MED23 + CG3700	DRSC04407		5803		1888		inactive
CG10324	DRSC14230		17185		3328		inactive
CG7632	DRSC11842		9868		4242		inactive
Nep6 (Neprilysin 6)	DRSC19877		1872	4877	582	1040	inactive
Pk34A (Protein kinase at 34A)	DRSC03398		3584	6950	1584	3546	inactive
CG17575	DRSC06682		8593		3248		inactive
CG7920	DRSC16346		4736	9096	2241	3680	inactive
CG7920	DRSC21594		6.37e5	6.55e5	2.07e5	2.00e5	inactive
frj (farjavit)	DRSC03250		11301		3596		inactive
snoRNA:U31:54Ec + snoRNA:snR38:54Eb + snoRNA:U27:54Eb + 8 more	DRSC06458		6644		2987		inactive
vimar (visceral mesodermal armadillo-repeats)	DRSC05026		12304		3104		inactive
Ddr (Discoidin domain receptor)	DRSC00922		11751		6624		inactive
Ddr (Discoidin domain receptor)	DRSC00923		13888		6368		inactive
Ddr (Discoidin domain receptor)	DRSC02150		2168	7367	409	2976	inactive
Ddr (Discoidin domain receptor)	DRSC03229		3381	8080	1019	3283	inactive
Ddr (Discoidin domain receptor)	DRSC03230		3659	9916	509	4805	inactive
Ddr (Discoidin domain receptor)	DRSC22818		5.51e5	6.49e5	2.31e5	2.84e5	inactive
nAChRalpha6 (nicotinic Acetylcholine Receptor alpha6)	DRSC01096		19561		7497		inactive
nAChRalpha6 (nicotinic Acetylcholine Receptor alpha6)	DRSC01098		17770		4448		inactive
nAChRalpha6 (nicotinic Acetylcholine Receptor alpha6)	DRSC02738		8432		4633		inactive
CG2765	DRSC04315		12756		3685		inactive
CG7275	DRSC10796		3744		1824		inactive
IntS3 (Integrator 3)	DRSC21215	Wg reporter activity lowered	7441		6658		active
Sr-CI (Scavenger receptor class C, type I)	DRSC00790		5459		1312		inactive
Ada2a + Polr2D	DRSC16206		14408		3638		inactive
Ada2a + Polr2D	DRSC21598		1.32e6	9.69e5	8.17e5	3.45e5	inactive
Pld (Phospholipase D)	DRSC04854		10248		3485		inactive
COX6AL2 (Cytochrome c oxidase subunit 6A-like 2)	DRSC10082		12120		2240		inactive
CG11251	DRSC09825		5609		3178		inactive
